The whole screen tested about 300,000 compounds, of which about 3,700 (1.2%) were called active. Inconclusive means that the source gave no clear call. Such entries were picked first, then a sample of the others. Calls come from the whole dose curve; tested in HEK293 cells. A potency beside an inconclusive call is a rough fit, not a confirmed value.
Test: qHTS for Inhibitors of binding or entry into cells for Lassa Virus; note: nearly all actives have a fitted effect of over 50% in size
Conditions: Lassa virus pseudotype entry inhibition, cell reporter; series mostly up to 37.9 µM
Potency is the fitted concentration of half-maximal effect.

SMILES | Potency
CCN(C(=O)Cn1c(=O)oc2cc(Cl)ccc21)c1cccc(C(F)(F)F)c1 | inactive
Cc1cccc(N2CCN(C(=O)c3c(Cl)cnn3C)CC2)c1C | active: 11.2 µM
C(=N\Nc1nc(-c2ccccc2)cs1)/c1cccs1 | inconclusive: 29.1 µM [inhibitor, single point]
CCc1nc(N2CCCCC2C)c2oc3ccccc3c2n1 (centres undefined) | inconclusive: 29.1 µM [inhibitor, single point]
COc1ccc(CCNC(=O)CCNC(=O)c2ccc(Cl)cc2)cc1OC | inactive
Cc1ccc(C(=O)N=c2sccn2C)cc1C | inconclusive: 14.1 µM [inhibitor, single point]
N#CC1=C(SCC(=O)c2ccccc2)NC2=C(C(=O)CCC2)C1c1ccco1 (centres undefined) | inconclusive: 5.62 µM [inhibitor, full curve]
NS(=O)(=O)c1cccc(NC(=O)c2cc(=O)c3ccccc3o2)c1 | inactive
COc1cccc2cc(C(=O)NCCc3c(C)[nH]c4ccc(Br)cc34)c(=O)oc12 | inconclusive: 8.91 µM [inhibitor, partial curve, poor fit]
O=C(COc1ccc2c(c1)CCC2)Nc1ccccn1 | active: 11.2 µM
CCC(C)OC(=O)C1=C(C)NC(=O)CC1c1ccccc1OC (centres undefined) | inconclusive: 14.1 µM [inhibitor, partial curve]
COc1ccc(NC(=O)C2CCCN(S(=O)(=O)c3ccc4c(c3)CCCC(=O)N4)C2)c(OC)c1 (centres undefined) | inactive
CCC1(CC)C(=O)NC(=O)NC1=NCCc1ccc(O)cc1 | inactive
Cc1ccc(C(c2nnnn2Cc2ccccc2)N2CC=C(c3ccc(F)cc3)CC2)cc1 (centres undefined) | inconclusive: 18.3 µM [inhibitor, partial curve]
CCOC(=O)C1CSCCS(=O)(=O)N1Cc1ccc(F)cc1F (centres undefined) | inconclusive: 0.628 µM [inhibitor, full curve, poor fit]
O=C(NC(=S)Nc1ccc(Br)cc1)C1CCC1 | inactive
COc1ccc(NC(=O)C2CCC2)cc1S(=O)(=O)Nc1cc(C)ccc1Br | inconclusive: 7.94 µM [inhibitor, partial curve, poor fit]
Cc1oc(-c2ccccc2)nc1CN1C(=O)C(C)N=C(c2ccccc2F)c2cc(Cl)ccc21 (centres undefined) | inconclusive: 1.16 µM [inhibitor, partial curve, poor fit]
COc1ccc(/C=C/C(=O)c2ccc3c4c(cccc24)CC3)cc1 | inconclusive: 35.5 µM [inhibitor, single point]
COc1ccc(C2=NN(CN3C(=O)C(=O)c4ccccc43)C(c3ccc(OC)cc3)C2)cc1 (centres undefined) | inactive
COc1ccccc1C(=O)NC(=O)CSc1nc(C)cs1 | inconclusive: 0.316 µM [activator, partial curve, poor fit]
COc1ccc(NC(=S)N(CCc2c(C)[nH]c3ccc(C)cc23)Cc2ccco2)cc1 | inconclusive: 0.0231 µM [inhibitor, full curve, poor fit]

SMILES | Potency
O=S(=O)(c1ccc(Br)cc1)c1nc(-c2cccs2)oc1SCc1ccccc1F | inactive
COc1ccc(C2CC(c3ccc(Br)cc3)=NN2C(=O)c2cccnc2)cc1 (centres undefined) | inconclusive: 35.5 µM [inhibitor, single point]
CCOC(=O)c1c(NC(=O)CSc2nnc(C)s2)sc2c1CCC(C)C2 (centres undefined) | inconclusive: 14.1 µM [inhibitor, partial curve, poor fit]
O=C(CCN1C(=O)C2C3C=CC(C4CC34)C2C1=O)OCC(=O)c1ccccc1 (centres undefined) | inactive
Cc1ccc[n+](C(C(=S)NCc2ccco2)=C([O-])c2ccccc2Cl)c1 | inconclusive: 1.41 µM [activator, partial curve, poor fit]
O=C(COc1nc2ccccc2nc1N1CCOCC1)Nc1cccc(S(=O)(=O)N2CCCCC2)c1 | inconclusive: 11.2 µM [inhibitor, single point]
CCOc1cc(CNCCO)cc(Br)c1OCc1ccccc1Cl | inconclusive: 22.4 µM [inhibitor, single point]
COc1cc(CNCCSc2nnnn2C)cc(Br)c1OCc1ccccc1F | inconclusive: 6.31 µM [inhibitor, single point]
COc1ccc(N2C(=O)CC(Cc3ccccc3)C2=O)cc1 (centres undefined) | inactive
O=C1/C(=C/c2cccs2)CCC1C1CCCC1 (centres undefined) | inconclusive: 35.5 µM [activator, single point]
Oc1ccc(/C=N/NP(=S)(c2ccccc2)c2ccccc2)cc1 | inactive
O=C(NCc1ccccc1Cl)c1cnc2sc(N3CCCCC3)nn2c1=O | inactive
COc1ccc(/C=C/C(=O)c2ccc3c(c2)OCO3)c(OC)c1 | inconclusive: 2.06 µM [activator, partial curve, poor fit]
O=C(COC(=O)c1ccccc1Br)Nc1cccnc1Cl | inconclusive: 35.5 µM [inhibitor, single point]
COc1ccc2cc(/C=C3\SC(=S)NC3=O)c(N3CCOCC3)nc2c1 | inconclusive: 25.1 µM [inhibitor, single point]
Cc1nnn(C23CC4CC(CC(CC(=O)Nc5ccc(C)c(Cl)c5)(C4)C2)C3)n1 | inconclusive: 22.4 µM [inhibitor, single point]
C=CCNC(=S)N1CCC(C(=O)c2ccc(C)cc2)CC1 | inactive
CC(=O)Nc1ccc(S(=O)(=O)N2CCCc3ccccc32)cc1 | inconclusive: 0.103 µM [inhibitor, full curve, poor fit]
CN1C(=O)C2(c3ccccc31)N(c1cccc(F)c1)C(=O)CS2(=O)=O (centres undefined) | inconclusive: 3.55 µM [activator, full curve]
Cc1ccc(S(=O)(=O)Nc2cccc(-c3ccc4nncn4n3)c2)cc1 | inconclusive: 5.01 µM [inhibitor, partial curve]
CCN(CC)S(=O)(=O)c1ccc(N2CCCCC2)c(NC(=O)C2=COCCO2)c1 | inconclusive: 35.5 µM [inhibitor, single point]
COCCN1C(=O)c2ccccc2C(C(=O)N2CCN(c3ccccc3)CC2)C1c1ccc(F)cc1 (centres undefined) | inconclusive: 18.3 µM [inhibitor, partial curve, poor fit]

3 of the compounds above, as labelled records.
COc1cc(CNCCSc2nnnn2C)cc(Br)c1OCc1ccccc1F
  Potency: inconclusive: 6.31 µM [inhibitor, single point]
CCN(CC)S(=O)(=O)c1ccc(N2CCCCC2)c(NC(=O)C2=COCCO2)c1
  Potency: inconclusive: 35.5 µM [inhibitor, single point]
COCCN1C(=O)c2ccccc2C(C(=O)N2CCN(c3ccccc3)CC2)C1c1ccc(F)cc1 (centres undefined)
  Potency: inconclusive: 18.3 µM [inhibitor, partial curve, poor fit]

Reference: PubChem BioAssay AID540256 (National Center for Advancing Translational Sciences (NCATS), 2011)
